Reference: paper PMC7364212
No constants are given. Whether binding was seen depends on the method and setting. In cells and extracts the contact can be indirect. Some binding calls cover weakened binding; strength is not graded here.

Chains of the proteins cited; added tags and fusions are not shown.
UniProt P36813: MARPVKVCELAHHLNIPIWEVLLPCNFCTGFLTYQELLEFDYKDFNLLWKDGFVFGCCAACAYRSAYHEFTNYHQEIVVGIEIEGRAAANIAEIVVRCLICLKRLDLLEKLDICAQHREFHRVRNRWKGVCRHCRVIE
UniProt P03126: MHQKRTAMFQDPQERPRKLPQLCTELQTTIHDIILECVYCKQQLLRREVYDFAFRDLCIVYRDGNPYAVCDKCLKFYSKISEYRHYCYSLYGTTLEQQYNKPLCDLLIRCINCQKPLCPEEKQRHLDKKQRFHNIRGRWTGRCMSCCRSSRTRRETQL
UniProt Q92585: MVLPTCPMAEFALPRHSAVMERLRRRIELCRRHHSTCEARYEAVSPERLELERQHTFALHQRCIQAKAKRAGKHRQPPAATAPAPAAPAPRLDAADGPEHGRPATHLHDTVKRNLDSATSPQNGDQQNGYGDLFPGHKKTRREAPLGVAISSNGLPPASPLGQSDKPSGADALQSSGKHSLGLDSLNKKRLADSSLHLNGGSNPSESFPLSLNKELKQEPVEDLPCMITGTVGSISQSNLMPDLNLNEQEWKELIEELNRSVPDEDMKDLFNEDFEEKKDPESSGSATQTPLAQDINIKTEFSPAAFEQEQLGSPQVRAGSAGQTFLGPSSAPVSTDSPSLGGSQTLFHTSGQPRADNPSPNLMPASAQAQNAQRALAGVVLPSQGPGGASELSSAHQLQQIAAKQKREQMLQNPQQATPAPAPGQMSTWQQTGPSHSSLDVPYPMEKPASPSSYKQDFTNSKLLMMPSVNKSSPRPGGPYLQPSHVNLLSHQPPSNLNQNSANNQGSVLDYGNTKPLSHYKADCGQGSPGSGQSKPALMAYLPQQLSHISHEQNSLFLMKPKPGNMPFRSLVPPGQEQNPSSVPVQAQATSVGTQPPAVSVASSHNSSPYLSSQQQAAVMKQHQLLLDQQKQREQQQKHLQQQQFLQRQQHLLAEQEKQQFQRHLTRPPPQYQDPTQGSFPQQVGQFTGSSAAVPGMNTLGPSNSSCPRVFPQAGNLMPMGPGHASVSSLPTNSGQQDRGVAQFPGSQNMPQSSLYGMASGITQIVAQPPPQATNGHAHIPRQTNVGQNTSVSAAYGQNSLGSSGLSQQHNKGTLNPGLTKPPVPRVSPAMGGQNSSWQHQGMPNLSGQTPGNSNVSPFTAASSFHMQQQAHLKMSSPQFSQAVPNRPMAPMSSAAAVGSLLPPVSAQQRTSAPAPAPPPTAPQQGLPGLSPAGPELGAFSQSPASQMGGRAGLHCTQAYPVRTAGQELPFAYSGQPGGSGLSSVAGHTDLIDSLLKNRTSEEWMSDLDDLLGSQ

Tests used:
[1] = biological target: GST/E6 fusion protein of beta-3 HPV49 (human papillomavirus type 49 (HPV49)) (UniProt P36813); assay: pull-down; only the target purified
[2] = biological target: GST/E6 fusion protein of mucosal high-risk HPV16 (human papillomavirus type 16 (HPV16)) (UniProt P03126); assay: pull-down; only the target purified

“Mastermind-like 1 (MAML1) (from UniProt Q92585 1-1016)” was tested, and the binding [1] was “binds” and the binding [2] was “no binding”.
